Some of the results follow. Further columns of the screen follow, without active or inactive calls. The list favours compounds with an active or inconclusive main result. The note in brackets gives the kind of curve behind each potency; many fits are weak.

A short description of this experiment: qHTS Assay to Find Inhibitors of Chronic Active B-Cell Receptor Signaling. The conditions noted are these: ABC-DLBCL IkBa-CBG/CBR reporter, luminescence ratio (green luciferase fused to IkBa over red control in TMD8 lymphoma cells), 4 h. In outline: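 TMD8 human ABC-DLBCL cells with doxycycline-inducible IκBα–green luciferase fusion and unfused red luciferase, in 0.5% FBS medium; compounds up to 46 uM, 4 h at 37C. Green/red luminescence ratio, filter-overlap corrected, fitted to concentration-response curves.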

The mark [1] stands for this setting: measured here: CBR red luminescence, cell number.
[2] abbreviates: measured here: IkBa-CBG green luminescence.

Turning to `Fc1ccc(-c2nc(-c3cccs3)no2)cc1`, under setting [1], the AC50 was 1.41 µM [rising, full curve, poor fit].
`CCOc1cccc(-c2cc(C(=O)Nc3ccon3)c3ccccc3n2)c1`: the AC50 under setting [1] is 4.47 µM [falling, partial curve, poor fit].
Consider `COc1ccc(NC(=O)c2c(NCc3cccs3)sc3c2CCCCC3)cc1`, for which the AC50 under setting [1] was 0.1 µM [falling, full curve, poor fit].
`CN(C1CCCCC1)S(=O)(=O)c1ccc(F)c(C(=O)Nc2ccc(C(F)(F)F)cc2)c1`: the AC50 under setting [1] is 0.224 µM [rising, full curve, poor fit].
For `O=C(Nc1cccc(-c2nn[nH]n2)c1)c1ccc(Br)s1`, the AC50 reads like this: under setting [1], 28.2 µM [falling, single point]; under setting [2], 14.1 µM [rising, partial curve, poor fit].
As to `COc1cccc(C2=NOC(C(=O)NCc3ccco3)C2)c1` (stereo not given), the AC50 under setting [1] is 31.6 µM [falling, single point].
On to `C=CCc1cc(C(=O)N2CCCCC2)ccc1O`, for which the AC50 under setting [1] was 32.6 µM [falling, single point].
Still for that read-out and setting: for `CCCc1ccc(-c2c(C)sc(N)c2C#N)cc1` the value was 0.092 µM [rising, full curve, poor fit]; for `N=c1sc2ccccc2n1-c1ccccc1`, 1.64 µM [rising, full curve, poor fit].
The same measure, in the same setting: to `CCOC(=O)CC(=O)c1cc(OC)c(OC)c(OC)c1` belongs 25.9 µM [falling, single point].
Still for that read-out and setting: for `Cn1cc(CC(=O)NC2CCCCC2)c2ccccc21` the value was 15.8 µM [falling, partial curve].
`Oc1ccc(Nc2nc(-c3ccc(O)cc3)cs2)cc1`: under setting [1], the AC50 is 20.6 µM [falling, partial curve].
`Cc1oc(-c2ccc(Cl)cc2)nc1CN1CCC(C(=O)N2CCN(Cc3ccccc3)CC2)CC1`: the AC50 runs as follows: under setting [1], 23.1 µM [falling, single point]; under setting [2], 25.9 µM [rising, partial curve, poor fit].
Consider `O=c1c(-c2nc3ccccc3s2)cccn1Cc1ccccc1`, for which the AC50 under setting [1] was 2.82 µM [falling, full curve].
The same measure, in the same setting: for `Cc1ccc2nc(NC(=O)[C@H](C)N3C(=O)C4CC=CCC4C3=O)sc2c1` (stereo not given in full) the value was 20 µM [falling, partial curve, poor fit]; for `O=C(Nn1cnnc1)c1ccc(Cl)c([N+](=O)[O-])c1`, 35.5 µM [falling, single point].
With `CCN(CC)S(=O)(=O)c1ccc(/C(O)=C(\C#N)c2nc3ccccc3n2C)cc1`, the AC50 under setting [1] is 2 µM [rising, partial curve].
Same read-out and setting: to `Cc1nn(-c2ccccc2)c2c1C(O)n1c(nc3ccccc31)S2` (stereo not given) belongs 29.1 µM [falling, single point].
`O=C(CCS(=O)(=O)Cc1ccc(Cl)cc1)NCCCN1CCOCC1`: under setting [1], the AC50 is 3.26 µM [falling, partial curve, poor fit].
Same read-out and setting: to `CCOC(=O)c1sc2nc(CSCC(=O)OCc3ccc(C(=O)OC)o3)[nH]c(=O)c2c1C` belongs 12.6 µM [falling, partial curve, poor fit].
Still for that read-out and setting: for `COc1cccc(NC(=O)Cn2cnc3sc(C)c(S(=O)(=O)N4CCN(C)CC4)c3c2=O)c1` the value was 9.2 µM [falling, partial curve].
On the same count and under the same terms, to `O=C1c2ccccc2C(=O)N1CCc1nc(-c2ccncc2)no1` belongs 6.51 µM [falling, single point].
With `CC(O)CNc1nc2c(c(=O)n(Cc3ccc(Cl)c(Cl)c3)c(=O)n2C)n1C` (stereo not given), the AC50 under setting [1] is 12.6 µM [falling, single point] and the AC50 under setting [2] is 17.8 µM [rising, single point].
Take `CCCNC(=S)NCCN1CCCCC1`: the AC50 under setting [1] is 18.4 µM [rising, single point].
Same read-out and setting: to `O=C1CCCC(O)=C1C(C#Cc1ccccc1)C1=C(O)CCCC1=O` belongs 20.6 µM [falling, single point]; to `Cc1cccc(NC(=O)CSc2nnc(NC(=O)CN3CCOCC3)s2)c1`, 0.00461 µM [rising, full curve, poor fit].
The same measure, in the same setting: to `CC(=O)Nc1ccc2c(CSc3nncs3)cc(=O)oc2c1` belongs 3.16 µM [rising, partial curve, poor fit]; to `CCc1c(O)nc(SCC(=O)Nc2ccc(OC)cc2)n(C2CCCCC2)c1=O`, 6.51 µM [falling, single point].
Still for that read-out and setting: to `COc1ccccc1C(=O)NCCC(=O)Nc1cccc(C)n1` belongs 6.31 µM [rising, single point].
Consider `Cc1ccc2[nH]c(=O)c(CN(Cc3cccs3)C(=S)NCc3ccco3)cc2c1`, for which the half-maximal activity concentration (AC50) under setting [1] was 7.31 µM [falling, partial curve].
Same read-out and setting: for `COCCNC(=O)CSc1nc2cc3c(cc2c(=O)n1CCCC(=O)NCCc1ccc(OC)c(OC)c1)OCO3` the value was 4.47 µM [rising, full curve, poor fit].
Same read-out and setting: to `O=C(COc1ccccc1[N+](=O)[O-])N(Cc1ccco1)C1CCS(=O)(=O)C1` (stereo not given) belongs 11.2 µM [falling, partial curve].
The same measure, in the same setting: to `CC(=O)Nc1ccc(N=Nc2ccccc2)cc1` belongs 0.82 µM [rising, partial curve]; to `Cc1cc(CNC(=O)c2ccc3oc(C(C)C)nc3c2)nn1C`, 1.12 µM [rising, full curve, poor fit].
With `CC(C)[C@H](NC(=O)c1ccccc1)C(=O)OCc1nc2scc(-c3ccccc3)c2c(=O)[nH]1`, the AC50 under setting [1] is 29.1 µM [falling, single point].
The same measure, in the same setting: to `COC(=O)c1cc(C(=O)Nc2nc3ccccc3[nH]2)cc([N+](=O)[O-])c1` belongs 2.82 µM [falling, partial curve, poor fit].
As for `CCCCCNc1nc(-c2ccccc2)cs1`, the AC50 under setting [1] is 16.4 µM [falling, single point].
`Cc1ccc(C(=O)Oc2ccc(C(=O)COC(=O)C3CC(=O)N(Cc4ccco4)C3)cc2)cc1` (stereo not given): the AC50 under setting [1] is 0.651 µM [rising, full curve, poor fit].
The same measure, in the same setting: for `COc1cc(OC)cc(C(=O)NC(C(=O)N2CCc3ccccc3C2)C(C)C)c1` (stereo not given) the value was 1 µM [falling, full curve, poor fit].
For the compound `CS(=O)(=O)N1N=C(c2ccc(Br)cc2)CC1c1cccs1` (stereo not given), under setting [1], the AC50 was 0.517 µM [rising, full curve].
In the case of `Cc1ccc(SC(=O)c2c(C)noc2-c2cc(C)on2)cc1`, the AC50 is, setting by setting: under setting [1], 14.1 µM [falling, partial curve, poor fit]; under setting [2], 12.6 µM [rising, partial curve, poor fit].
On to `Cc1ccccc1Nc1c([N+](=O)[O-])ccc2nonc12`, for which, under setting [1], the AC50 is 35.5 µM [rising, single point].
On the same count and under the same terms, to `C=CCn1c(SCC(=O)Nc2cccc(OC)c2)nnc1-c1cccnc1` belongs 7.31 µM [falling, partial curve, poor fit]; to `Cc1oc(-c2ccc(-c3ccccc3)cc2)nc1CN(CCO)C(C)C`, 0.251 µM [falling, full curve].
Consider `Cc1cccc(/C=N/NC(=O)c2ccc(Br)cc2)c1`, for which the AC50 under setting [1] was 4.61 µM [rising, single point].
The same measure, in the same setting: to `Cc1ccc(-c2nnc(Cc3ccc([N+](=O)[O-])cc3)o2)cc1` belongs 0.316 µM [falling, full curve, poor fit].
On to `O=C(Nc1cccc(-c2nc3cccnc3s2)c1)C1c2ccccc2Oc2ccccc21`, for which the AC50 is 18.4 µM [rising, single point] under setting [1] and 20.6 µM [falling, single point] under setting [2].
Turning to `Cc1nc(CNS(=O)(=O)c2cc(C)c(C)cc2C)cs1`, under setting [1], the AC50 is 23.1 µM [rising, single point].
Still for that read-out and setting: for `O=C(NCc1ccc2c(c1)OCO2)c1cc2ncc(Br)cn2n1` the value was 5.17 µM [falling, single point].
On the same count and under the same terms, for `COc1ccc(NCc2n[nH]c(=O)c3ccccc23)cc1` the value was 3.26 µM [rising, full curve, poor fit]; for `Cc1[nH]c(=O)c(C#N)c(C)c1Cc1ccc(Cl)cc1Cl`, 0.562 µM [falling, full curve].
The same measure, in the same setting: to `CCOc1ccc(CCNC(=O)CCCN2C(=O)c3ccccc3C2=O)cc1OCC` belongs 35.5 µM [rising, single point]; to `NC(=S)Nc1ncc(CCN2CCOCC2)c(-c2ccc(F)cc2)n1`, 1.12 µM [rising, full curve, poor fit].
For `COc1ccc(CCNc2ncnc3c2nnn3C)cc1OC`, the AC50 under setting [1] was 11.2 µM [falling, partial curve].
With `O=C(Nc1nccc(-c2cccs2)n1)c1ccccc1Cl`, the AC50 under setting [1] was 7.94 µM [falling, partial curve].
The same measure, in the same setting: for `O=C(Nc1cc(SCCO)cc([N+](=O)[O-])c1)c1ccc(Br)o1` the value was 10.3 µM [falling, partial curve, poor fit].
The same measure, in the same setting: for `O=C(NCC(O)c1ccc([N+](=O)[O-])cc1)c1cccc(S(=O)(=O)N2CCCC2)c1` (stereo not given) the value was 6.31 µM [rising, single point].
The same measure, in the same setting: to `Cc1ccc(N2C(=O)/C(=C/c3cccnc3)SC2=S)cc1` belongs 2.91 µM [rising, full curve, poor fit]; to `O=C(Nc1ccccc1Oc1ccccc1)c1cccs1`, 35.5 µM [rising, single point].
For `Cc1cc(C)n(CCO)c(=O)n1`, the AC50 by setting is: under setting [1], 29.1 µM [rising, single point]; under setting [2], 18.4 µM [falling, partial curve, poor fit].
With `Cn1cnc2c1c(=O)n(Cc1cccc(Br)c1)c(=O)n2C`, the AC50 under setting [1] is 25.9 µM [falling, single point].
`COc1cccc(OCCNc2cc(N3CCOCC3)ccc2[N+](=O)[O-])c1`: under setting [2], the AC50 is 16.4 µM [falling, partial curve, poor fit].
`CC(C)Oc1snc(Cl)c1C(N)=O`: under setting [1], the AC50 is 18.4 µM [rising, single point].
Still for that read-out and setting: for `CCOC(=O)c1c(-c2ccccc2)cn2c(C)cc(C)nc12` the value was 14.1 µM [falling, single point].

Source of the values: PubChem BioAssay AID493014 (National Center for Advancing Translational Sciences (NCATS), 2011).
